## Screening data, single-dose tests

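Whole-cell growth test on Mycobacterium tuberculosis, read after 4 days in a medium based on cholesterol and the lipid DPPC; the read-out is not stated. Compounds at 50 µM. Direction is inferred from retests: higher values go with more growth inhibition. Of about 69,000 compounds tested this way, about 370 (0.54%) reached 50% or more in at least one test.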

Values are the deposited “Percent Effect”, in %.
How 0% and 100% were set is not recorded. Most values in the screen are low, and negative values occur.
This is an unselected part of the compounds tested.
Two or more numbers in one place are separate tests of the same structure; such repeats can differ widely.

{"smiles": "[H][C@@]12CCN(C(C)=O)C[C@]1([H])[C@H](C(=O)NCc1ccco1)CCO2", "Percent Effect": -28.43}
{"smiles": "CCS(=O)(=O)N1CCC2(CC1)CN(c1cccnc1)C(=O)CO2.O=C(O)C(F)(F)F", "Percent Effect": -5.816}
{"smiles": "O=C(NCc1cc[nH]n1)N1CCC(Oc2ccccc2Cl)CC1", "Percent Effect": 18.22}
{"smiles": "COCCCNC(=O)N1CCC(CNC(=O)c2cnn(C)c2)CC1", "Percent Effect": 6.195}
{"smiles": "CCn1cnnc1CNC(=O)N1CCN(c2cccc(C)c2)CC1", "Percent Effect": -16.64}
{"smiles": "CC(=O)N1CC[C@H](c2nc3cc(C)ccc3o2)C1", "Percent Effect": 7.761}
{"smiles": "CC(=O)Nc1ccc(Cl)c(C(=O)N(C)Cc2nc(C)c[nH]2)c1", "Percent Effect": -22.41}
{"smiles": "CC1(C(N)=O)CCCN(c2cnccn2)C1", "stereo": "stereo not drawn", "Percent Effect": 3.893}
{"smiles": "Cc1nccc(CN2CCC(c3nnsc3S(C)(=O)=O)CC2)n1", "Percent Effect": 1.617}
{"smiles": "Cc1nc(C)n(C2CCCN(C(=O)c3cc4ccccc4n3C)C2)n1", "stereo": "stereo not drawn", "Percent Effect": 0.9598}
{"smiles": "O=C(O)C(F)(F)F.O=C(c1cnccn1)N1CC2(CCN(Cc3ccsc3)C2)C1", "Percent Effect": -4.354}
{"smiles": "Cc1c(Cl)c(C(F)(F)F)nn1C(C)C(=O)NN1CCN(C)CC1", "stereo": "stereo not drawn", "Percent Effect": 29.78}
{"smiles": "CC(=O)N1CCCC1CCc1ccc(Cl)nn1", "stereo": "stereo not drawn", "Percent Effect": "-3.886 & -15.41"}
{"smiles": "COc1cccc(-n2nnc(C(=O)N3CCC(C(N)=O)CC3)c2C)c1", "Percent Effect": -4.124}
{"smiles": "Cc1cc(CN2CCCC(CNC(=O)Cn3cccn3)C2)oc1C", "stereo": "stereo not drawn", "Percent Effect": -0.007383}
{"smiles": "CCS(=O)(=O)CCCN1CCSCC1c1ccc(Cl)cc1", "stereo": "stereo not drawn", "Percent Effect": 4.696}
{"smiles": "Cc1ccccc1CCNC(=O)N1CCCC(c2nncn2C)C1", "stereo": "stereo not drawn", "Percent Effect": -18.03}
{"smiles": "COCCNc1ccc(CC2CCCN(c3ncccn3)C2)nn1", "stereo": "stereo not drawn", "Percent Effect": "-12.07 & -10.83"}
{"smiles": "CC(=O)NC(C)CC(=O)NCc1cccnc1Oc1ccccc1C", "stereo": "stereo not drawn", "Percent Effect": -23.01}
{"smiles": "Cc1nnc(Nc2cccc(C3CCN(Cc4ncc[nH]4)CC3)n2)s1", "Percent Effect": -22.11}
{"smiles": "Cc1cnn(CC2CN(CC(=O)N(C)Cc3cccs3)CCO2)c1", "stereo": "stereo not drawn", "Percent Effect": -10.63}
{"smiles": "CC(NC(=O)c1ccoc1)C(=O)N(C)Cc1cccc(C(F)(F)F)c1", "stereo": "stereo not drawn", "Percent Effect": -20.34}
{"smiles": "Cc1c(C(=O)OCC2CC(=O)N(c3ccccc3)C2)cnn1C(C)C", "stereo": "stereo not drawn", "Percent Effect": 7.626}
{"smiles": "O=C(CN1CCOC(Cn2cccn2)C1)NCc1ccco1", "stereo": "stereo not drawn", "Percent Effect": -14.25}
{"smiles": "Cc1ccccc1-c1cc(NC(=O)CC(C)C)n(CCO)n1", "Percent Effect": 1.608}
{"smiles": "CN(C1CCN(c2ccccn2)CC1)S(=O)(=O)c1cccc(F)c1", "Percent Effect": 13.9}
{"smiles": "CCC(C)Sc1ncc(-c2c(C#N)c(N)nc3c2COCC3)cn1", "stereo": "stereo not drawn", "Percent Effect": -13.99}
{"smiles": "Cc1nc(C)c(CNC(=O)N2CCc3ccccc3C2CO)s1", "stereo": "stereo not drawn", "Percent Effect": 11.59}
{"smiles": "COc1cc2c(cc1OC)CN(C(=O)NCC1CCCO1)CC2", "stereo": "stereo not drawn", "Percent Effect": 6.56}
{"smiles": "COc1cccc(C(=O)N2CCCC2c2ncc3c(n2)CCN(C)C3)c1", "stereo": "stereo not drawn", "Percent Effect": -12.86}
{"smiles": "Cc1cccc2nc(CSCc3nnnn3C(C)C)cn12", "Percent Effect": 3.35}
{"smiles": "CCNC(=O)N1CCCCC1CCNS(C)(=O)=O", "stereo": "stereo not drawn", "Percent Effect": 22.37}
{"smiles": "O=C(O)C(F)(F)F.[H][C@]12CN(Cc3ccc(C)cc3)C[C@@]1([H])S(=O)(=O)CC[C@@H]2C(=O)NCC(C)C", "Percent Effect": -22.35}
{"smiles": "CCN1CCN(Cc2nc(CCc3ccccc3)n[nH]2)CC1", "Percent Effect": -28.8}
{"smiles": "O=C(CCCn1cncn1)N1CCCC1c1nc(-c2ccccc2)no1", "stereo": "stereo not drawn", "Percent Effect": -1.397}
{"smiles": "CCOC1CCN(C(=O)c2csc(S(N)(=O)=O)c2)CC1", "Percent Effect": -3.234}
{"smiles": "O=C(COc1cccc(F)c1)N1C[C@H](CO)C[C@H](CN2CCCC2)C1", "Percent Effect": -11.95}
{"smiles": "CC(C)c1noc(CS(=O)(=O)CC(=O)NCCOc2ccccc2)n1", "Percent Effect": "-123 & 6.026"}
{"smiles": "CNC(=O)C1CN(C(=O)Cc2ccc(OC)cc2)Cc2cn(C)nc21", "stereo": "stereo not drawn", "Percent Effect": "-8.128 & -8.777"}
{"smiles": "CC(=O)N1CC(=O)N(c2ccccc2)CC12CCN(Cc1ccsc1)C2", "stereo": "stereo not drawn", "Percent Effect": 3.884}
{"smiles": "O=C(Nc1ccc(CCN2CCOCC2)cc1)C1CC1", "Percent Effect": 6.986}
{"smiles": "O=C(O)C(F)(F)F.[H][C@]12CC[C@@]3(N=C(CC)N(CC)C3=O)[C@@]1([H])CN(Cc1ccccc1F)C2", "Percent Effect": "-2.319 & -4.493"}
{"smiles": "O=C(CC1COCCN1)NCCc1nc(Cc2ccccc2)no1", "stereo": "stereo not drawn", "Percent Effect": -22.75}
{"smiles": "CC(C)c1nc(CNc2ccc(CCO)cc2)cs1", "Percent Effect": 9.42}
{"smiles": "Cc1nsc(N2CCCN(C(=O)c3ccc4[nH]ccc4c3)CC2)n1", "Percent Effect": 4.649}
{"smiles": "CNCC(=O)N1CCC(c2cccc(Oc3ccccc3)n2)CC1", "Percent Effect": -2.705}
{"smiles": "O=C(c1ccc(F)cc1F)N(CC(F)(F)F)C1CCOCC1", "Percent Effect": 2.97}
{"smiles": "CC(NC(=O)NCCNc1cnccn1)c1cccs1", "stereo": "stereo not drawn", "Percent Effect": -24.07}
{"smiles": "CC(C)C(O)C1CCN(c2ccnc(C(=O)NCc3ccco3)c2)CC1", "stereo": "stereo not drawn", "Percent Effect": 14.08}

Data taken from ChEMBL document CHEMBL3988442, “University of Dundee, Small-Polar-MMV Screening Library” (2021).